# Measurements published in PubChem BioAssay AID1671190 (National Center for Advancing Translational Sciences (NCATS), 2021).
# Sequences of proteins named here, by UniProt entry; tags and fusion partners are left off. A change or cut given only in a name is not applied to a line headed by its entry.
# UniProt P18054: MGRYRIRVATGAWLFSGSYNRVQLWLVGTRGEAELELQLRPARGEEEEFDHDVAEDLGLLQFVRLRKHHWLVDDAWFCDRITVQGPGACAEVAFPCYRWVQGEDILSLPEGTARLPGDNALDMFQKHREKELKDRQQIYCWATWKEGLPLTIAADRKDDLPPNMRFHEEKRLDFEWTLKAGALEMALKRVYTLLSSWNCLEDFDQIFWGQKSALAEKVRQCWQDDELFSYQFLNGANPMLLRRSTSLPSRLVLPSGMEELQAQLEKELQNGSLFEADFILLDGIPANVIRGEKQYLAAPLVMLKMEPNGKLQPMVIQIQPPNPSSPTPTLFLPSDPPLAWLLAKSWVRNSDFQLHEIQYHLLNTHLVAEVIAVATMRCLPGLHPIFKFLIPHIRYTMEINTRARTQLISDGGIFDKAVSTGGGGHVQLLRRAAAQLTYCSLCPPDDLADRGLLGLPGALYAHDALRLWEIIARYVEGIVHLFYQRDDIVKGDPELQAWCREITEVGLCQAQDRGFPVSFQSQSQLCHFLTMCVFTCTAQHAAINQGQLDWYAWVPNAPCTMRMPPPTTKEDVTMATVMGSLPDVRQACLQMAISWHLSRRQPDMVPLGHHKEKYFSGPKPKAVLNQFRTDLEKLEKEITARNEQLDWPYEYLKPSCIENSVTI
# “And” between values parts separate entries of the source, which are not always exact repeats. Equal values may be shown once. The campaign covered roughly 580,000 compounds. About 6,100 (1.1%) were called active. This list was built around the results that the source calls inconclusive (neither active nor inactive); the mix of calls is not that of the screen. Calls come from the whole dose curve; as a rule, active = well fitted inhibition curve with a large enough effect; inconclusive = small, poorly fitted or top-dose-only effect, or another doubt; inactive = no such curve, though single readings can be large or run the other way. Where the call is inconclusive, the potency comes from a doubtful curve fit.
# Molecular target: Polyunsaturated fatty acid lipoxygenase ALOX12 (Homo sapiens) (UniProt P18054)
# Test: Primary qHTS assay for inhibitors of human arachidonate 12S-lipoxygenase (ALOX12): Round 2
# Details: purified 12hLO, xylenol orange hydroperoxide absorbance; activity change, negative = inhibition: at 108 µM (top of the series) unless noted
# How it was run: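 Purified human 12hLO (150 nM final) in 25 mM Hepes, 0.01% Triton X-100, pH 7.0 was preincubated 15 min at room temperature with compound. Then 40 uM arachidonic acid was added, 30 min. Hydroperoxide was read by Fe-XO absorbance ratio 573/405 nm.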
# % is set by controls: 0 for no effect and ±100 for the full control effect; potency is the fitted concentration of half-maximal effect.
SMILES,Potency,"activity change, negative = inhibition"
O=C(Nc1ccc(CN2CCOCC2)cc1)c1ccc(Cl)cc1,inactive,
CC(Oc1ccc(Br)cc1)C(=O)Nc1ccncc1 (configuration not stated),inactive,
Cc1noc(C(C)N2CCN(C(=O)c3cccs3)CC2)n1 (configuration not stated),"inconclusive: 3.16 µM [inhibitor, full curve, poor fit]",
CN1/C(=C/c2cccc[n+]2CCO)Sc2ccccc21,active: 44.7 µM,
Cc1cccc(Cn2cc(S(=O)(=O)c3ccccc3)c(=O)c3cc(F)c(N4CCOCC4)cc32)c1,inactive,
CC(NCc1ccccn1)C12CC3CC(CC(C3)C1)C2 (configuration not stated),,inconclusive: -34% [inhibitor]
COc1cc(NC(=O)Cn2c(-c3ccc(F)cc3)nc(C)c(CCO)c2=O)cc(OC)c1OC,"inconclusive: 39.8 µM [inhibitor, partial curve, poor fit]",
CCc1ccc2ncc3c(-c4ccc(F)cc4)nn(CC(=O)NC4CCCCC4)c3c2c1,inactive,
COc1ccc(OC)c(CN2CCN(C(=O)c3cccc(S(=O)(=O)Nc4ccc(C)cc4)c3)CC2)c1,"inconclusive: 56.2 µM [inhibitor, partial curve, poor fit]",
CN(C)/C=N/c1ncc(-c2ncc(C(F)(F)F)cc2Cl)cn1,"inconclusive: 100 µM [inhibitor, partial curve, poor fit]",
CCOC(=O)Cn1c(=O)n(-c2cccc(Cl)c2)c2nc(-c3ccccc3Cl)nc(C(N)=O)c21,"inconclusive: 3.98 µM [inhibitor, full curve]",
Cc1ccc2c(c1)NC(=O)C(CC(=O)NCCN(C)C)O2 (configuration not stated),"inconclusive: 25.1 µM [inhibitor, single point]",
CCOC(=O)C(NC(=O)/C=C/c1ccc2cc(OC)ccc2c1)C(=O)OCC,inactive,
CC(C)(C)NC(=O)C(=O)NN=C1CCCCCCC1,inactive,
CC(C)C(C)NC(=O)CSc1ccc(S(=O)(=O)N2CCOCC2)cn1 (configuration not stated),inactive,
CCN(CC)c1ccc(C(=O)NCc2nnc3cc(-c4nc(C(C)C)no4)ccn23)cc1,inactive,
Cc1cc(OCC(O)CN2CCN(C)CC2)ccc1C(C)C (configuration not stated),"inconclusive: 2.24 µM [inhibitor, partial curve, poor fit] and inconclusive: 50.1 µM [inhibitor, partial curve, poor fit]",
CN(C)c1ccc(CNC(=O)Cc2ccc(NC(=O)N3CCCCc4ccccc43)cc2)cc1,"inconclusive: 100 µM [inhibitor, partial curve, poor fit]",
NC(=O)CCC(NC(=O)c1ccc(-c2ccc(F)cc2)o1)C(=O)O (configuration not stated),"inconclusive: 28.2 µM [inhibitor, partial curve, poor fit]",
CC(C(=O)OCC(=O)c1ccc(F)cc1)N1C(=O)C2C3C=CC(C3)C2C1=O (configuration not stated),"inconclusive: 126 µM [inhibitor, single point]",
CCCCNC(=O)c1c(O)c2cccc3c2n(c1=O)CCC3,inactive,
Cc1sc2nc(SCC(=O)NCCOCCO)nc(N)c2c1C,"inconclusive: 56.2 µM [inhibitor, partial curve, poor fit]",
Cc1nc2ccc(NS(=O)(=O)c3c(C)c(C)cc(C)c3C)cc2s1,"inconclusive: 17.8 µM [inhibitor, full curve, poor fit]",

# Complete entries, quoted from the list:
# COc1ccc(OC)c(CN2CCN(C(=O)c3cccc(S(=O)(=O)Nc4ccc(C)cc4)c3)CC2)c1 reads Potency: inconclusive: 56.2 µM [inhibitor, partial curve, poor fit]
# NC(=O)CCC(NC(=O)c1ccc(-c2ccc(F)cc2)o1)C(=O)O (configuration not stated) reads Potency: inconclusive: 28.2 µM [inhibitor, partial curve, poor fit]

# More entries:

SMILES,Potency,"activity change, negative = inhibition"
C=CCn1c(SCC(=O)O)nc2sc(CC)cc2c1=O,"inconclusive: 100 µM [inhibitor, partial curve, poor fit]",
Cc1ccc(C(=O)N[C@H]2C[C@@H](c3nc(-c4ccc(C)cc4)no3)N(C)C2)cc1,"inconclusive: 31.6 µM [inhibitor, full curve, poor fit]",
COc1ccc(-c2ocnc2C(=O)Nc2cccc(Cl)c2C)cc1OC,"inconclusive: 79.4 µM [inhibitor, partial curve, poor fit]",
C=CCSc1nnc(-c2ccccc2NC(C)=O)c(=O)[nH]1,"inconclusive: 11.2 µM [inhibitor, partial curve, poor fit]",
CC[n+]1c(/C=C/N(C)c2ccccc2)oc2ccc(F)cc21,"inconclusive: 39.8 µM [inhibitor, partial curve, poor fit]",
COc1cc2cc(CN(CCc3cccc(C)c3)C(=S)NCCCN3CCOCC3)c(=O)[nH]c2cc1OC,"inconclusive: 14.1 µM [inhibitor, partial curve, poor fit]",
O=C(CNCc1cccs1)Nc1ccc(S(=O)(=O)N2CCCCC2)cc1,"inconclusive: 1 µM [inhibitor, full curve, poor fit]",
Cc1nn(CCCC(=O)NCc2ccccc2Br)c(=O)c2c1sc1ccccc12,inactive,
O=C(Nc1ccc2oc(-c3cccnc3)nc2c1)c1ccc(Cl)cc1,inactive,
COC(=O)c1sccc1NC(=O)c1c(Cl)cccc1Cl,"inconclusive: 112 µM [inhibitor, single point]",
COc1ccc(C(=O)Nc2nc3cc4c(cc3s2)OCCO4)c(OC)c1,inactive,
O=C(CCCC(=O)NC1CCCCC1)Nc1ccc([N+](=O)[O-])cc1,inactive,
CCN(CC)S(=O)(=O)c1ccc(C)c(NCc2ccccc2C#N)c1,"inconclusive: 44.7 µM [inhibitor, partial curve, poor fit]",
COc1ccc(/C=C2\SC(c3ccc(C)cc3)=NC2=O)cc1OC,"inconclusive: 7.08 µM [inhibitor, full curve, poor fit]",
CCOC(=O)NC(=O)/C(C#N)=C\Nc1ccc(Cl)cc1Cl,"inconclusive: 5.01 µM [inhibitor, full curve, poor fit]",
COc1ccc(NC(=O)Cc2ccccc2F)cc1S(=O)(=O)Nc1ccc(Cl)cc1,"inconclusive: 50.1 µM [inhibitor, partial curve, poor fit]",
CC(C)C(=O)NC(=S)Nc1c(Cl)ccc2nsnc12,"inconclusive: 10 µM [inhibitor, full curve, poor fit]",
COc1ccc(C(=O)CC(=O)C(=O)Nc2cc(OC)ccc2OC)cc1,inactive,
CC(NC(=O)COC(=O)c1cn(-c2ccccc2)nc1-c1cccs1)c1ccccc1 (configuration not stated),"inconclusive: 17.8 µM [inhibitor, partial curve, poor fit]",
O=C(C(Br)=Cc1ccccc1)c1ccccc1,inactive,
Clc1ccc(-c2nnc(N3CCCC3)nn2)cc1,inactive,
CCOc1cc([C@H]2[C@@H]3CCCC[C@]3(O)CCN2Cc2ccccc2F)ccc1O,"inconclusive: 39.8 µM [inhibitor, partial curve, poor fit]",

SMILES,Potency,"activity change, negative = inhibition"
CN(C)c1ccc(C(=S)NC2CCCCC2)cc1,"inconclusive: 44.7 µM [inhibitor, partial curve, poor fit]",
Cc1cccc(Nc2nc3c(s2)CCCC3)c1,"inconclusive: 50.1 µM [inhibitor, partial curve, poor fit]",
CSC1=N/C(=C\c2cccc(OC(C)=O)c2)C(=O)S1,"inconclusive: 7.94 µM [inhibitor, partial curve, poor fit]",
COc1cccc(CN2CCCCCNC(=O)CC2c2ccccc2)c1 (configuration not stated),inactive,
Oc1oc(-c2ccccc2Br)nc1C=Nc1ccc(Br)cn1,"inconclusive: 50.1 µM [inhibitor, partial curve, poor fit]",
CC(C)c1cc[n+](-c2nc([O-])sc2C=O)cc1,"inconclusive: 15.8 µM [inhibitor, single point]",
COc1ccc2c(C)c(CC(=O)NC3CCCCC3)c(=O)oc2c1OC,inactive,
COc1ccc(Br)cc1CNC(=O)c1cc(=O)[nH]c2ccc(S(=O)(=O)N3CCCCC3C)cc12 (configuration not stated),"inconclusive: 112 µM [inhibitor, partial curve, poor fit]",
CC(=O)Nc1cccc(C(=O)N2CCC(c3n[nH]c(=O)n3-c3ccc(C)cc3)CC2)c1,"inconclusive: 22.4 µM [inhibitor, full curve]",
COc1ccc(S(=O)(=O)N2CCc3cc4c(cc3C2C)OCCCO4)cc1 (configuration not stated),"inconclusive: 56.2 µM [inhibitor, partial curve, poor fit]",
Cc1cc(NC(=O)CN2CCCCCCC2)no1,"inconclusive: 0.501 µM [inhibitor, full curve, poor fit]",
CCNC(=O)c1cccnc1OC1CCN(C(=O)c2ccco2)C1 (configuration not stated),"inconclusive: 50.1 µM [inhibitor, partial curve]",
Brc1ccc(-c2cc3ccccn3c2)cc1,active: 14.1 µM,
CCOc1ccccc1CNCc1ccc(C(=O)O)cc1,inactive,
CSc1ccc(C2C(C#N)=C(N)N(c3ccccc3)C3=C2C(=O)CCC3)cc1 (configuration not stated),"inconclusive: 39.8 µM [inhibitor, single point]",
CCCCCCCCCCCCSCCO,"inconclusive: 28.2 µM [inhibitor, partial curve, poor fit]",
COc1ccc(/C=N\NC(=O)c2ccc([N+](=O)[O-])c(C)c2)cc1COc1ccccc1C(N)=O,inactive,
COc1ccc(C(=O)N2CCN(CCNC(=O)C(=O)Nc3ccc(Br)cc3)CC2)cc1,inactive,
COc1ccccc1C(=O)Sc1ccc(Cl)cc1,"inconclusive: 44.7 µM [inhibitor, partial curve, poor fit]",
COc1ccc(NC(=O)c2ccc(NC(=O)CN3CCN(c4ccc(O)cc4)CC3)cc2)cc1,"inconclusive: 50.1 µM [inhibitor, partial curve, poor fit]",
COc1ccc(Cl)cc1C(=O)OCC(=O)N(CC(C)C)c1c(N)n(Cc2ccccc2)c(=O)[nH]c1=O,"inconclusive: 56.2 µM [inhibitor, partial curve, poor fit]",
